At least one structure is not confirmed: it was looked up by name or label, or the drawing left a doubt.
How the values were obtained:
p300 = molecular target: T1, p300 (Homo sapiens, UniProt Q09472); assay: HAT-ThioGlo1 time course assay, p300; format: biochemical
T1 construct: p300 catalytic domain (p300 amino acids 1195-1810; Fan, 2010); 6xHis (N); FLAG (N); made in house; host or cells: BL21 E. coli
T1 sequence (Q09472 1195-1810): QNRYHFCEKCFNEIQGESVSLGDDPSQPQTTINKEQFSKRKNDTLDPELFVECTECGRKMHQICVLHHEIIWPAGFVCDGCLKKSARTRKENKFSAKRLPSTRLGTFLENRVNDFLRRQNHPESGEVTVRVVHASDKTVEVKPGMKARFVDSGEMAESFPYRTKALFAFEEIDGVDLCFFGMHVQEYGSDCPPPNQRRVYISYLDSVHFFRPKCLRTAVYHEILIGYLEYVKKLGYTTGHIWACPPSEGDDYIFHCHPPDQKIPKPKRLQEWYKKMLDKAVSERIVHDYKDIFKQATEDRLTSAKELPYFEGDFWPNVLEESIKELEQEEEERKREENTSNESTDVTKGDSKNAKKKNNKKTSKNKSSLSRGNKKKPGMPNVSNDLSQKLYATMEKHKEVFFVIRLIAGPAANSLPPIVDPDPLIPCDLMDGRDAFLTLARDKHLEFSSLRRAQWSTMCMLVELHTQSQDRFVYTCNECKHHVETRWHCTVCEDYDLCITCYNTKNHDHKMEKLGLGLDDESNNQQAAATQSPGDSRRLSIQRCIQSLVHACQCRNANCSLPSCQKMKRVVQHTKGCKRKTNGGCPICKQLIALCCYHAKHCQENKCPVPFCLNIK

Rtt109-Vps75 = molecular target: T2, Rtt109-Vps75 (Saccharomyces cerevisiae, UniProt Q07794); assay: HAT-ThioGlo1 time course assay, Rtt109-Vps75; format: biochemical, S. cerevisiae
T2 construct: 6xHis (on one of the two proteins of the complex); made in house; host or cells: bacteria
T2 sequence (Q07794 1-436): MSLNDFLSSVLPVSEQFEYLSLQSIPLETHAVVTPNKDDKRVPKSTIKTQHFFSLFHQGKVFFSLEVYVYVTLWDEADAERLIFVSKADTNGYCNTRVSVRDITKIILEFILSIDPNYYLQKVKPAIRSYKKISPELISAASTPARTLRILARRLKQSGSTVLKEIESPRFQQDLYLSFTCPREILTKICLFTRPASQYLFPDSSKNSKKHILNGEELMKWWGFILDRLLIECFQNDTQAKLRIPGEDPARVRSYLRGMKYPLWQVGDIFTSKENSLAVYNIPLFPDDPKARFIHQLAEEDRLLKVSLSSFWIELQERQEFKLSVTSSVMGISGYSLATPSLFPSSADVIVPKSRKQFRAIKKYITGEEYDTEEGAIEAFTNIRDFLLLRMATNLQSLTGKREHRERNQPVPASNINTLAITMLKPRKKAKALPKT
T2 sequence (P53853 1-264 partner): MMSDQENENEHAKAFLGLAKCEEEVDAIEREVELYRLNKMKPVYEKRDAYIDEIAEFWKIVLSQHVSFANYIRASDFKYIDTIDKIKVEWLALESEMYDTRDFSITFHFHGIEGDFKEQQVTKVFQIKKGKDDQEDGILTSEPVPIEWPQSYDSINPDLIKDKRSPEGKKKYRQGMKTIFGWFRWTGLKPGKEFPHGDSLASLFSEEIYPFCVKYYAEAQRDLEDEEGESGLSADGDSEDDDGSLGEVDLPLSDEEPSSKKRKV

## CCCC1(c2ccccc2)NC(=O)N(CC(=O)N(C)Cc2c(F)cccc2Cl)C1=O (stereo not drawn) [KB7, N-[(2-chloro-6-fluorophenyl)methyl]-2-(2,5-dioxo-4-phenyl-4-propylimidazolidin-1-yl)-N-methylacetamide]
p300; 15 μg/ml p300
  inhibition of HAT activity: did not significantly inhibit
p300; 0.5-2 μM
  inhibition in single point enzyme assay: without inhibiting p300
Rtt109-Vps75; 0.5-2 μM
  inhibition in single point enzyme assay: inhibited Rtt109
Rtt109-Vps75; +/− SEM
  Hill slope coefficient: −1.09+/−0.28
Rtt109-Vps75; substrate titration, Ac-CoA and H3n21
  effect on Vmax: decreases the Vmax with respect to both Ac-CoA and H3n21 substrates
Rtt109-Vps75; with respect to Ac-CoA and H3n21
  mode of inhibition: noncompetitive with respect to both substrates
